# Assay results reported in the supplement of paper PMC12067093, “Discovery and optimisation of a covalent ligand for TRIM25 and its application to targeted protein ubiquitination” (Chemical Science, 2025).
# Protein sequences, listed by entry. Tags and fused reporters are not part of them. Lines headed by an entry give the natural chain unless they say otherwise; changes in a name come on top.
# UniProt Q13574: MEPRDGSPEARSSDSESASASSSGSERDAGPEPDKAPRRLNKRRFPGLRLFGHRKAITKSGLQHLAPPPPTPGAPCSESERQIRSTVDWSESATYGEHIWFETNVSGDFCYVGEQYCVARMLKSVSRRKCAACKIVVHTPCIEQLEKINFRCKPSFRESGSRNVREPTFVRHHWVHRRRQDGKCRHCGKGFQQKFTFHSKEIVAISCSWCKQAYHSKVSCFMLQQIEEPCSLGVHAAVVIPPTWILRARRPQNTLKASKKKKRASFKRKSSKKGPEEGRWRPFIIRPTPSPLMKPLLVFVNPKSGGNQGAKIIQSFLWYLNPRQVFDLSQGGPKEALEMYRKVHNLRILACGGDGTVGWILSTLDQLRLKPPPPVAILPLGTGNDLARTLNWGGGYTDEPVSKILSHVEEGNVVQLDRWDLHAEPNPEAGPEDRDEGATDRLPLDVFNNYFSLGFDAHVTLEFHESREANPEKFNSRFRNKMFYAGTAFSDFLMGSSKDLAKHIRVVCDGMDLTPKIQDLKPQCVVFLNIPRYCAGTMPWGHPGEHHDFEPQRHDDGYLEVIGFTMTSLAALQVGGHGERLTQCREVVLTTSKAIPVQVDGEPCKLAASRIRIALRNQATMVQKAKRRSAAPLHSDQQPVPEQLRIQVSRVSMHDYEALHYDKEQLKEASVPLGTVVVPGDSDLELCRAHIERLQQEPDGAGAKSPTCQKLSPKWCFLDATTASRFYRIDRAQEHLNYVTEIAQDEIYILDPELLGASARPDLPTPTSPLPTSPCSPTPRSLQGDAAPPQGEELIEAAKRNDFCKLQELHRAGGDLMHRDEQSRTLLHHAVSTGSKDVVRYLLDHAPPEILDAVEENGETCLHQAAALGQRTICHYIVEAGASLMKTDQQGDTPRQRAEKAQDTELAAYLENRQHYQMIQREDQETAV
# UniProt Q5H9U9: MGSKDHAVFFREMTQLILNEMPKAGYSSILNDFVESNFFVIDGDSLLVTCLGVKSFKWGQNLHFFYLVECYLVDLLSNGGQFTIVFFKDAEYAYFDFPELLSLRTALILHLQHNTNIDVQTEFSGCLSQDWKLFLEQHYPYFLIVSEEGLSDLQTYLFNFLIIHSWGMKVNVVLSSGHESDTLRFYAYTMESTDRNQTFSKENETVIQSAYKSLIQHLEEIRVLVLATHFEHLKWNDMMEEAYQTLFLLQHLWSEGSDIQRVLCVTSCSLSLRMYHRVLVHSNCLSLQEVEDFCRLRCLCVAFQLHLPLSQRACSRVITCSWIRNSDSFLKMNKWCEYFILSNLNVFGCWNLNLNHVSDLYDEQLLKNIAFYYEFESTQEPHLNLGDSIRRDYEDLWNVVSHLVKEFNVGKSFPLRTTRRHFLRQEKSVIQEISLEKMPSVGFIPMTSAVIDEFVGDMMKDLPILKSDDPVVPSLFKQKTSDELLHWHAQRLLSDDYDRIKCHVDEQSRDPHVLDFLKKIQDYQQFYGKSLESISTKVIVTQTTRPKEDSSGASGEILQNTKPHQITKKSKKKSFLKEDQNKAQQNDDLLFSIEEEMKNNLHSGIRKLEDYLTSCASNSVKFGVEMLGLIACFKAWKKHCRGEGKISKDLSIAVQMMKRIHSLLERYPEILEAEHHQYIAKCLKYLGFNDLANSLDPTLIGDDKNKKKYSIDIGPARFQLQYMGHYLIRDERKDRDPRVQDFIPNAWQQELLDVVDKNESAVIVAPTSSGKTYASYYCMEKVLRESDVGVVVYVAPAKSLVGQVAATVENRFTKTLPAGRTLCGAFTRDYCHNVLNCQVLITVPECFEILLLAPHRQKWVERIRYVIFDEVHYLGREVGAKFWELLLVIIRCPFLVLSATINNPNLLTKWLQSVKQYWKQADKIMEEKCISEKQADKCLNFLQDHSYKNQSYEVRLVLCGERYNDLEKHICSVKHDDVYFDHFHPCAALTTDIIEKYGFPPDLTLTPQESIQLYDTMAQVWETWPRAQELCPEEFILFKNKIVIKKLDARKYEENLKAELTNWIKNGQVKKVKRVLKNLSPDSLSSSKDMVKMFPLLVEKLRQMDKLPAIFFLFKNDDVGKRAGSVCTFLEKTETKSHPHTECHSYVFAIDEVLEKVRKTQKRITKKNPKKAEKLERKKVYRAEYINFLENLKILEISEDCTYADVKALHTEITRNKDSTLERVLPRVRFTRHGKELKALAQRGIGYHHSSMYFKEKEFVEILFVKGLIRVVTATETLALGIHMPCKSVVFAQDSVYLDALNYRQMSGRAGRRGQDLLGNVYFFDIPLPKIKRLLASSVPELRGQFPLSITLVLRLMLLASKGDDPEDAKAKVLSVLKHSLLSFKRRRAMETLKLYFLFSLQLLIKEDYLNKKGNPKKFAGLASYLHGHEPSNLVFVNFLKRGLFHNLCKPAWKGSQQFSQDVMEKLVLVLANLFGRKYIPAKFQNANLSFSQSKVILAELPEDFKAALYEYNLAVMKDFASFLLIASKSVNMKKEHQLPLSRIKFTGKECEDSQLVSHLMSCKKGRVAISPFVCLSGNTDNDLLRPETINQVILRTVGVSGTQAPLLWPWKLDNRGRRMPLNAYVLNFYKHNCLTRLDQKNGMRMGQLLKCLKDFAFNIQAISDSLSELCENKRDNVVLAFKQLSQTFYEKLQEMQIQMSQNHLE
# UniProt Q7Z401: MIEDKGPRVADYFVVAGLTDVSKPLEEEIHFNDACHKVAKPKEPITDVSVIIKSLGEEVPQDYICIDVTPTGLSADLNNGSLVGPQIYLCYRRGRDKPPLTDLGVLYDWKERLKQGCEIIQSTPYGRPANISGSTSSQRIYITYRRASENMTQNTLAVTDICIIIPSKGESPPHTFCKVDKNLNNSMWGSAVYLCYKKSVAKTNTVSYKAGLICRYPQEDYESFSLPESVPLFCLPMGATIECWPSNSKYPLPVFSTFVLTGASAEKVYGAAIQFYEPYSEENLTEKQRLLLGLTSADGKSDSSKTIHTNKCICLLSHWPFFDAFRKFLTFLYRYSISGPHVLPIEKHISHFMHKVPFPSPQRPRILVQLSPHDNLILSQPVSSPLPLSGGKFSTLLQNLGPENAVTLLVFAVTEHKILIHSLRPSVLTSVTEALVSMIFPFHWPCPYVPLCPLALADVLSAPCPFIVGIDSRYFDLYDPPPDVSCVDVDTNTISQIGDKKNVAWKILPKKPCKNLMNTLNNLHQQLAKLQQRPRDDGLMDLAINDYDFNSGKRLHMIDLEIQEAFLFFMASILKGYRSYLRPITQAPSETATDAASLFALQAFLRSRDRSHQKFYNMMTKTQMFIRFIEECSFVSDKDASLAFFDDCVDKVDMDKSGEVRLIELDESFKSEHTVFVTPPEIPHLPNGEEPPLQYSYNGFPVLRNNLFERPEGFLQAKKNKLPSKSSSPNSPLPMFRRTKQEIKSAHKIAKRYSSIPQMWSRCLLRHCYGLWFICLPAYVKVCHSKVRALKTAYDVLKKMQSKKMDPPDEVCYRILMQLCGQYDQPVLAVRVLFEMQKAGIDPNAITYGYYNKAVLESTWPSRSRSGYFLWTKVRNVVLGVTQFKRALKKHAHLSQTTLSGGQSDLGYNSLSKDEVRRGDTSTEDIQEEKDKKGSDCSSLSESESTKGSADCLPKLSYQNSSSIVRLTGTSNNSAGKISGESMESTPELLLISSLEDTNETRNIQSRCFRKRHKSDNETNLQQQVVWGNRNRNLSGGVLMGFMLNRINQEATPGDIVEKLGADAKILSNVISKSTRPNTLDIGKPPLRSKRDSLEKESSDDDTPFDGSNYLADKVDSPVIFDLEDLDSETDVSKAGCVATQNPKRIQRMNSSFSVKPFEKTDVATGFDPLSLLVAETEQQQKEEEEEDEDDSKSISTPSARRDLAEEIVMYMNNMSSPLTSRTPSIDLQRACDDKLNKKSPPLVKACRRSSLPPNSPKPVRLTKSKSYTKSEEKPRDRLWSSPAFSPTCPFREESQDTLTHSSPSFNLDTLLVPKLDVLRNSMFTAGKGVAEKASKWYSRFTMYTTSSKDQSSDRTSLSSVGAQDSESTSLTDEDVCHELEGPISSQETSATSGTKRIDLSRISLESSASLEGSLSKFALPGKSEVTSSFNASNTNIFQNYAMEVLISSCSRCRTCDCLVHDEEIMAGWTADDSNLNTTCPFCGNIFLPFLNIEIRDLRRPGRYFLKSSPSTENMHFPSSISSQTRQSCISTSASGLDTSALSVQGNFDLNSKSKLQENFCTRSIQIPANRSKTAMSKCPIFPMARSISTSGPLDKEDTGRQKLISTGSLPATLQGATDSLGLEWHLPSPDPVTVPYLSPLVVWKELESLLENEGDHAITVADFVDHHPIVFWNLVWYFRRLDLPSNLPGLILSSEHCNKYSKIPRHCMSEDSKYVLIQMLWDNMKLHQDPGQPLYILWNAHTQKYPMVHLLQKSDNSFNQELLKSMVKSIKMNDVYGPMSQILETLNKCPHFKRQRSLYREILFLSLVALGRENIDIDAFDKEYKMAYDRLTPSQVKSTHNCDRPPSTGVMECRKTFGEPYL
# UniProt O75064: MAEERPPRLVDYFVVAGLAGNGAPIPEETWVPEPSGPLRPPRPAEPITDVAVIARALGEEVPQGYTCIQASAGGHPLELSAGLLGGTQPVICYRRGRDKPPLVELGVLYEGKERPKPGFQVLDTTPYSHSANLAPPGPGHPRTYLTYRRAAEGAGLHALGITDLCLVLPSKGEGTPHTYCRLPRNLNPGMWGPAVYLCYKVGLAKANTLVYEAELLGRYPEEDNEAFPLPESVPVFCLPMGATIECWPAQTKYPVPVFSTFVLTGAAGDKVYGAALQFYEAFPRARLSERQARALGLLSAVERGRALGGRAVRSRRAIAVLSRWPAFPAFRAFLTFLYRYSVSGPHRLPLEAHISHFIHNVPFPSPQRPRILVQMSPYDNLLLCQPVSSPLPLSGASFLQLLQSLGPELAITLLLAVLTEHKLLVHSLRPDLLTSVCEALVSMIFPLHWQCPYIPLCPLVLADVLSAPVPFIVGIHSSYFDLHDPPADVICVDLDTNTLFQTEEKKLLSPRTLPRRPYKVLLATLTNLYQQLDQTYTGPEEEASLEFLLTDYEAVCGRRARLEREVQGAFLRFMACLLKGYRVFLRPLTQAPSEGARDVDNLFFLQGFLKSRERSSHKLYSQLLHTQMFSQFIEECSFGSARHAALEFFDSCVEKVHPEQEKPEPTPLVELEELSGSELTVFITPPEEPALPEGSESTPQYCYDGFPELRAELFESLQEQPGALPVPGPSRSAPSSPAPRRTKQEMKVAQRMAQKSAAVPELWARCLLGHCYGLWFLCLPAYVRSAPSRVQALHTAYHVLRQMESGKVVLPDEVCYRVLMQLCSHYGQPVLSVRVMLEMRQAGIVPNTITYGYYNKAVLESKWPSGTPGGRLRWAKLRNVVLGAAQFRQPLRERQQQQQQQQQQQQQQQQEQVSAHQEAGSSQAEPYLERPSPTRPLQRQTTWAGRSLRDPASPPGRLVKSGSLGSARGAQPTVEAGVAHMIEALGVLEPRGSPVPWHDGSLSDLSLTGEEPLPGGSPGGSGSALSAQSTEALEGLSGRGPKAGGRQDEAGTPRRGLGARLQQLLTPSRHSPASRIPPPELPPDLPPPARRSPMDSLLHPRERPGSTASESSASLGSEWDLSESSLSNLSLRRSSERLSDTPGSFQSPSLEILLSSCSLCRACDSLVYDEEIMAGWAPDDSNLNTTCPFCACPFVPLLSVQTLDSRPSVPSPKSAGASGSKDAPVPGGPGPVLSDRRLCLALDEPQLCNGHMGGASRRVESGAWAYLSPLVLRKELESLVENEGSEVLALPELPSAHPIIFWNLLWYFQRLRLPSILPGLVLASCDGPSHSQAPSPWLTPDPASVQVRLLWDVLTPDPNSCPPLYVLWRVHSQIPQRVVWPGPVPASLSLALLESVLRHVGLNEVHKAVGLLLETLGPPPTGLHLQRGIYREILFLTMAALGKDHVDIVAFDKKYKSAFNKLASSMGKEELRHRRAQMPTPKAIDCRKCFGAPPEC
# UniProt Q16698: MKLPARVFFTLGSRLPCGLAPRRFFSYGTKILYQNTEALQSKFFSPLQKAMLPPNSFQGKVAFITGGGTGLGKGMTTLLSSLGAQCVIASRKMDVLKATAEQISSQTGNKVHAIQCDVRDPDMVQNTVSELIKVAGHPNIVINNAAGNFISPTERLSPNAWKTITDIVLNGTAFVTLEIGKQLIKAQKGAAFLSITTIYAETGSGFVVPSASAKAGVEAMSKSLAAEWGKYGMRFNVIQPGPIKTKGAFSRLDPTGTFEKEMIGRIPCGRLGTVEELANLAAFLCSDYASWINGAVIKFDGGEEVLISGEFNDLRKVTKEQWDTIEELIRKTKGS
# UniProt O43583: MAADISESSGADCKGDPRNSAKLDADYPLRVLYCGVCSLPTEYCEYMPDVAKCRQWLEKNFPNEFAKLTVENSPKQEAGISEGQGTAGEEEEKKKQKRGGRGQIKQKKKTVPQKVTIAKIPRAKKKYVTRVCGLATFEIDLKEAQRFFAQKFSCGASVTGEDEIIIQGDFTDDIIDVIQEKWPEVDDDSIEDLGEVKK
# The list shows a part of the results.
# Compound: Cc1cc(ccc1-c1ccccc1)C(=O)N1CCCN(CC1)C(=O)CCl [compound 10]
# Assay: probe-labelled cysteine peptide fold change vs DMSO (competition) (log2 fold change); higher = less target engagement (more negative = stronger competition)
# Conditions: THP-1, incubation time: 4 h
# 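Note: competitive profiling in live THP-1 cells: cysteine peptides tagged with an iodoacetamide desthiobiotin (IA-DTB) probe, intensity after compound treatment relative to DMSO-treated cells.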
Target,probe-labelled cysteine peptide fold change (10 µM),probe-labelled cysteine peptide fold change (50 µM)
DDX59_Q5T1V6_208_QQLGILVQGQEVTRPIIDFEHCSLPEVLNHNLK (UniProt Q5T1V6),0.105,0.0483
DGLUCY_Q7Z3D6_265_APPGCLTPER (UniProt Q7Z3D6),-0.239,-0.427
DDX5_P17844_191_ELAQQVQQVAAEYCR (UniProt P17844),0.115,-0.161
DGKZ_Q13574_905_WCFLDATTASR (UniProt Q13574),-0.051,0.222
DDX5_P17844_320_DYIHINIGALELSANHNILQIVDVCHDVEKDEK (UniProt P17844),-0.18,-0.432
DDX56_Q9NY93_185_SLLCHLPR (UniProt Q9NY93),0.611,0.666
DGKA_P23743_432_ILVCGGDGTVGWILETIDK (UniProt P23743),0.251,0.141
DDX6_P26196_361_KISQLGYSCFYIHAK (UniProt P26196),-0.0496,0.284
DDX17_Q92841_166_GGDVCPKPVFAFHHANFPQYVMDVLMDQHFTEPTPIQCQGFPLALSGR (UniProt Q92841),-0.0129,-0.437
DDX60L_Q5H9U9_938_CLNFLQDHSYK (UniProt Q5H9U9),-0.0982,0.109
DEPDC1B_Q8WUY9_43_SYEHCFTAAEAVDWLHELLR (UniProt Q8WUY9),0.101,0.0359
DENND4C_Q5VZ89_88_SPELFLCYK (UniProt Q5VZ89),0.355,-0.178
DDX41_Q9UJV9_281_QTHGILEYYCR (UniProt Q9UJV9),0.0444,0.149
DDX46_Q7L014_501_RGAEIIVCTPGR (UniProt Q7L014),0.189,0.403
DFFA_O00273_47_ACDILAIDK (UniProt O00273),0.148,-0.197
DGCR8_Q8WYQ5_91_LLIDPNCSGHSPR (UniProt Q8WYQ5),-0.107,-0.0445
DHCR24_Q15392_499_LGCQDAFPEVYDK (UniProt Q15392),-0.106,-0.0376
DDX27_Q96GQ7_259_DICACAATGTGK (UniProt Q96GQ7),0.0194,-0.0602
DHRS4L2_Q6PKH6_86_KQQNVDQAVATLQGEGLSVTGTVCHVGK (UniProt Q6PKH6),0.254,-0.306
DENND1A_Q8TEH3_459_DIAENGCAPTPEEQLPK (UniProt Q8TEH3),-0.162,-0.204
DDX17_Q92841_166_GGDVCPK (UniProt Q92841),0.0712,0.22

Target,probe-labelled cysteine peptide fold change (10 µM),probe-labelled cysteine peptide fold change (50 µM)
DDX1_Q92499_631_VWYHVCSSR (UniProt Q92499),0.0796,0.0965
DDX39A_O00148_164_NCPHVVVGTPGR (UniProt O00148),0.0495,0.179
DGKE_P52429_177_CDFGEFK (UniProt P52429),-0.0751,-0.0659
DEF6_Q9H4E7_267_RGIIPLDAHCCVEVLPDRDGK (UniProt Q9H4E7),0.247,-0.0747
DDX51_Q8N8A6_338_CLADIVVATPGR (UniProt Q8N8A6),-0.00575,-0.0889
DENND4A_Q7Z401_35_PLEEEIHFNDACHK (UniProt Q7Z401),-0.0984,-0.131
DDX23_Q9BUQ8_677_GCDVLAK (UniProt Q9BUQ8),-0.169,0.00824
DDX54_Q8TDD1_73_LGPGRPLPTFPTSECTSDVEPDTR (UniProt Q8TDD1),-0.0432,-0.0456
DGLUCY_Q7Z3D6_418_TQIPILTYQGGSVEAAQAFLCK (UniProt Q7Z3D6),-0.179,0.135
DDX54_Q8TDD1_389_CSTLIVTDLAAR (UniProt Q8TDD1),0.1,0.184
DDX17_Q92841_431_CDDLTR (UniProt Q92841),-0.174,0.402
DDX23_Q9BUQ8_692_MGYNACTLHGGK (UniProt Q9BUQ8),-0.103,-0.228
DDX1_Q92499_122_EWHGCR (UniProt Q92499),-0.136,-0.0348
DESI1_Q6ICB0_108_GEAYNLFEHNCNTFSNEVAQFLTGR (UniProt Q6ICB0),-0.076,-1.61
DEAF1_O75398_401_ASHPEPHYPGYQDSCQIAPFPEAALPTSHPK (UniProt O75398),-0.0422,-0.0163
DDX1_Q92499_571_FLICTDVAAR (UniProt Q92499),0.102,-0.157
DDHD2_O94830_207+227_RGVENISVDIHCGEPLQIDHLVFVVHGIGPACDLR (UniProt O94830),0.185,0.142
DDX20_Q9UHI6_162_MEGLECHVFIGGTPLSQDK (UniProt Q9UHI6),0.208,0.306
DDX50_Q9BQ39_633_GNMGVCFDVPTTESER (UniProt Q9BQ39),-0.00706,-0.272
DECR2_Q9NUI1_13_AQPPPDVEGDDCLPAYR (UniProt Q9NUI1),0.286,0.364
DDX54_Q8TDD1_149_TACFLLPMFER (UniProt Q8TDD1),0.0592,0.213

Target,probe-labelled cysteine peptide fold change (10 µM),probe-labelled cysteine peptide fold change (50 µM)
DENND4B_O75064_165_AAEGAGLHALGITDLCLVLPSK (UniProt O75064),0.381,0.134
DDX46_Q7L014_478_VVCVYGGTGISEQIAELKR (UniProt Q7L014),0.037,-0.186
DDX17_Q92841_447_DGWPAMCIHGDK (UniProt Q92841),-0.193,-0.213
DENND4C_Q5VZ89_1113_TCMSESTWNPEHR (UniProt Q5VZ89),-0.0425,-0.0779
DDX24_Q9GZR7_467_CLVVDEADRMVEK (UniProt Q9GZR7),0.0575,-0.0421
DDX60L_Q5H9U9_986_HDDVYFDHFHPCAALTTDIIEK (UniProt Q5H9U9),0.097,0.0401
DDOST_P39656_145_ELGSECGIEFDEEK (UniProt P39656),-0.057,0.292
DDX46_Q7L014_590_SVVCSDVEQQVIVIEEEKK (UniProt Q7L014),-0.261,-0.261
DDX5_P17844_234_LIDFLECGK (UniProt P17844),0.0124,-0.0963
DDX39B_Q13838_198_HFILDECDK (UniProt Q13838),0.101,0.209
DDX60L_Q5H9U9_1127_AGSVCTFLEK (UniProt Q5H9U9),-0.0904,0.191
DENND1C_Q8IV53_781_EEPGALNSPATPTSNCQK (UniProt Q8IV53),-0.276,-0.159
DDX20_Q9UHI6_98_CGLDLIVQAK (UniProt Q9UHI6),-0.0986,-0.579
DDX31_Q9H8H2_660_MEDILCVLTR (UniProt Q9H8H2),-0.245,0.115
DDX58_O95786_428_NTDEALDYICK (UniProt O95786),0.349,-0.0256
DDX17_Q92841_319_CTYLVLDEADR (UniProt Q92841),0.178,0.0942
DDX60_Q8IY21_857_HDALNCQVLITVPACFEILLLAPHR (UniProt Q8IY21),-0.185,0.181
DGKZ_Q13574_697_VVCDGMDLTPK (UniProt Q13574),0.0849,-0.0655
DDX5_P17844_200_STCIYGGAPK (UniProt P17844),-0.0442,-0.0153
DEPDC7_Q96QD5_65_HNDCFVGSEAVDVIFSHLIQNK (UniProt Q96QD5),0.082,-0.0131
DENND4C_Q5VZ89_955_MQTEEVCDASAIVAK (UniProt Q5VZ89),-0.223,-0.113

Target,probe-labelled cysteine peptide fold change (10 µM),probe-labelled cysteine peptide fold change (50 µM)
DEF6_Q9H4E7_267_GIIPLDAHCCVEVLPDR (UniProt Q9H4E7),0.0885,-0.00985
DECR1_Q16698_116_VHAIQCDVRDPDMVQNTVSELIK (UniProt Q16698),0.000298,0.149
DDX52_Q9Y2R4_342_TGFRDQLASIFLACTSHK (UniProt Q9Y2R4),0.00973,0.189
DDX1_Q92499_513_MDQAIIFCR (UniProt Q92499),0.298,0.237
DDX39A_O00148_62_AIVDCGFEHPSEVQHECIPQAILGMDVLCQAK (UniProt O00148),0.144,0.0705
DDB1_Q16531_652_SLSTTNVFACSDRPTVIYSSNHK (UniProt Q16531),0.0765,0.229
DDX31_Q9H8H2_584_GVLLCTDVAAR (UniProt Q9H8H2),0.108,-0.0465
DENR_O43583_13_AADISESSGADCK (UniProt O43583),-0.127,-0.381
DDX10_Q13206_196_INNINILVCTPGR (UniProt Q13206),0.0926,0.195
DDX41_Q9UJV9_264_EGPYGLIICPSR (UniProt Q9UJV9),-0.156,-0.423
DENND4C_Q5VZ89_1211_EDVETGLDPLSLLATECTGGK (UniProt Q5VZ89),-0.234,-0.0261
DDX21_Q9NR30_291_KLSVACFYGGTPYGGQFER (UniProt Q9NR30),-0.199,-0.636
DENND4A_Q7Z401_648_DASLAFFDDCVDKVDMDK (UniProt Q7Z401),-0.206,-0.185
DDX39A_O00148_74_AIVDCGFEHPSEVQHECIPQAILGMDVLCQAK (UniProt O00148),0.0209,0.0748
DDX50_Q9BQ39_490_TGICICFYQPR (UniProt Q9BQ39),-0.017,-0.522
DDX18_Q9NVP1_407_ANATVDGLEQGYVVCPSEKR (UniProt Q9NVP1),-0.283,0.127
DGKH_Q86XP1_995_THLYIHHAIDLATEEVSQMQLCSQAAEELITR (UniProt Q86XP1),-0.0192,0.0692
DDX17_Q92841_166+199_GGDVCPKPVFAFHHANFPQYVMDVLMDQHFTEPTPIQCQGFPLALSGR (UniProt Q92841),-0.28,-1.05
DEF6_Q9H4E7_279_CMFCVK (UniProt Q9H4E7),0.118,-0.332
DENND4B_O75064_636_LYSQLLHTQMFSQFIEECSFGSAR (UniProt O75064),0.158,0.0652
